Among the data in paper PMC3264577, “RINL, Guanine Nucleotide Exchange Factor Rab5-Subfamily, Is Involved in the EphA8-Degradation Pathway with Odin” (PLoS ONE, 2012) are binding values, retold here.

Results are given in words; binding and its absence hold for the method and conditions named. Binding seen in cells or lysates may run through a third protein. A result given as binding can be weak or reduced; the word gives no strength. Where a sequence is shown, tags or fusion partners need not be part of it.

Test [1] addresses T1, myc-odin, tyrosine-phosphorylated by co-expression with constitutively active Src (UniProt Q92625).
T1 sequence (chain, phosphotyrosine (sites not named), by co-expressed constitutively active Src): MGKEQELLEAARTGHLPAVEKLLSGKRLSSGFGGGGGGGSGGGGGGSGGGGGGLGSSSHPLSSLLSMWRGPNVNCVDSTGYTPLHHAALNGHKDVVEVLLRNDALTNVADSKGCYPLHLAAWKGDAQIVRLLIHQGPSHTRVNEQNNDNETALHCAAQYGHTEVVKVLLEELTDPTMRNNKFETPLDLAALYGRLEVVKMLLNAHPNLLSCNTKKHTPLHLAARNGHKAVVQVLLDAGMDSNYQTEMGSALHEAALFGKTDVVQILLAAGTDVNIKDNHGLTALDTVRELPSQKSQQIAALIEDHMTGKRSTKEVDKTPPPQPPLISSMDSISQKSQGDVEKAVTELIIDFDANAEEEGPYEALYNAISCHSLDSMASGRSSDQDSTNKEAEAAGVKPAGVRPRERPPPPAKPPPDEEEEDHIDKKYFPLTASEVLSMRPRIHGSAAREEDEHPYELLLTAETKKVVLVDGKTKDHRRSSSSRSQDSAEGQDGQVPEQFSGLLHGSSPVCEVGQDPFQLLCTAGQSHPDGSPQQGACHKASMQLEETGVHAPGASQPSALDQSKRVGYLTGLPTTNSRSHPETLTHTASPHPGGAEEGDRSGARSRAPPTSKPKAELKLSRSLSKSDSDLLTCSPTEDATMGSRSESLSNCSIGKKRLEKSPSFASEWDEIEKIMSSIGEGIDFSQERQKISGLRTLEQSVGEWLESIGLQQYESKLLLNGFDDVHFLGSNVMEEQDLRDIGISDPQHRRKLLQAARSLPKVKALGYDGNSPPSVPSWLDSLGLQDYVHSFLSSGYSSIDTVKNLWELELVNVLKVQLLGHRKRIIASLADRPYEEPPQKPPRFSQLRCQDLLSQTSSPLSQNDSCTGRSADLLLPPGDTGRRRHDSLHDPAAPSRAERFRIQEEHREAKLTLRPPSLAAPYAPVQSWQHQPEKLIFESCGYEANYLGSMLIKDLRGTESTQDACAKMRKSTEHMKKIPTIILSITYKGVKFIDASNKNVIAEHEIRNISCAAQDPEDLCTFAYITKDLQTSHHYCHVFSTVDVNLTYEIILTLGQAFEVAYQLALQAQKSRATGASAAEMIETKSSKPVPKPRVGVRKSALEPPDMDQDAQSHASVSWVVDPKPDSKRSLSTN
Description: co-IP; myc-odin and V5-RINL co-transfected with FLAG-tagged constitutively active Src or mock into HEK293T; lysates immunoprecipitated with anti-myc.

For a further test, the target named is T2, myc-odin, wild type (UniProt Q92625).
T2 sequence: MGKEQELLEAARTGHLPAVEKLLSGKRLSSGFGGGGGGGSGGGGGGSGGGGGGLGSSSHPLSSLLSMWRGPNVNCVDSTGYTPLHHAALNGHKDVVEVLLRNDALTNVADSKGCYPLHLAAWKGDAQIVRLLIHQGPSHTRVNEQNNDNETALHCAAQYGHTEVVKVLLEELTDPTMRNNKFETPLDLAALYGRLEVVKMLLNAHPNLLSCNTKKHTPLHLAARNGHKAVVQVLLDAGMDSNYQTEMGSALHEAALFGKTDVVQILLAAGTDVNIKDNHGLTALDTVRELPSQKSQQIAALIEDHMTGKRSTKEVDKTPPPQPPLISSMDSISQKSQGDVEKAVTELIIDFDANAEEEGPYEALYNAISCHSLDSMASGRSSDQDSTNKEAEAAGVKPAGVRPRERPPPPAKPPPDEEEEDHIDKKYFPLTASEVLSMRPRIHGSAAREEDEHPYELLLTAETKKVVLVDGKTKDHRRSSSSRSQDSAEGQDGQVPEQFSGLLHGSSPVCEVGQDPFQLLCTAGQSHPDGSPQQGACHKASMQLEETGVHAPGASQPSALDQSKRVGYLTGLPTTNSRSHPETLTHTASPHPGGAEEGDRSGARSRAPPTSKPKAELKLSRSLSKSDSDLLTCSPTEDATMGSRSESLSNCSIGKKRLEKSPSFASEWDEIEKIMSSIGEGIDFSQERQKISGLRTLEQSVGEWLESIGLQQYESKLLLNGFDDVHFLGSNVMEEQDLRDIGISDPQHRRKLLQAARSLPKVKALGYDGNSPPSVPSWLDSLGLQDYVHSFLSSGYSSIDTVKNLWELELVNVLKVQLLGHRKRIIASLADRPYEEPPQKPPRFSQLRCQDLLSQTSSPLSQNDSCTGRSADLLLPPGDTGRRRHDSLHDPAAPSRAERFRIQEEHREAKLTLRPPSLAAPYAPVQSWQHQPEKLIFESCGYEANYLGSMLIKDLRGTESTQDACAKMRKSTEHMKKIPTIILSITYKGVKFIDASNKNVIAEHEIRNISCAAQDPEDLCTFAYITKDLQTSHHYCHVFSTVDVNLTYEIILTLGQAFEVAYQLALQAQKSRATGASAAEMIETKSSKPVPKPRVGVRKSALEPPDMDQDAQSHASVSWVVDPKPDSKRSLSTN
The description is as above.

The target of test [2] is FLAG-RINL-Y494A/T497A (human). Put plainly: co-IP; FLAG-RINL wild type or point mutants co-transfected with myc-odin into HEK293T; lysates immunoprecipitated with anti-FLAG, blotted with anti-myc and anti-FLAG.
Test [3] has as its target FLAG-RINL-D453A/P457A (human). The description is as above.
The next test addresses myc-RINL (human). Description: co-IP; HEK293T co-transfected with EphA8-FLAG, HaloTag-odin and myc-RINL or mock plasmids; lysates immunoprecipitated with anti-myc.

Take V5-RINL (human): the binding entry in test [1] is recorded as “binds”; in the test with myc-odin, wild type, “binds”.

B1: myc-odin, wild type (protein, UniProt Q92625 1-1134)
chain: MGKEQELLEAARTGHLPAVEKLLSGKRLSSGFGGGGGGGSGGGGGGSGGGGGGLGSSSHPLSSLLSMWRGPNVNCVDSTGYTPLHHAALNGHKDVVEVLLRNDALTNVADSKGCYPLHLAAWKGDAQIVRLLIHQGPSHTRVNEQNNDNETALHCAAQYGHTEVVKVLLEELTDPTMRNNKFETPLDLAALYGRLEVVKMLLNAHPNLLSCNTKKHTPLHLAARNGHKAVVQVLLDAGMDSNYQTEMGSALHEAALFGKTDVVQILLAAGTDVNIKDNHGLTALDTVRELPSQKSQQIAALIEDHMTGKRSTKEVDKTPPPQPPLISSMDSISQKSQGDVEKAVTELIIDFDANAEEEGPYEALYNAISCHSLDSMASGRSSDQDSTNKEAEAAGVKPAGVRPRERPPPPAKPPPDEEEEDHIDKKYFPLTASEVLSMRPRIHGSAAREEDEHPYELLLTAETKKVVLVDGKTKDHRRSSSSRSQDSAEGQDGQVPEQFSGLLHGSSPVCEVGQDPFQLLCTAGQSHPDGSPQQGACHKASMQLEETGVHAPGASQPSALDQSKRVGYLTGLPTTNSRSHPETLTHTASPHPGGAEEGDRSGARSRAPPTSKPKAELKLSRSLSKSDSDLLTCSPTEDATMGSRSESLSNCSIGKKRLEKSPSFASEWDEIEKIMSSIGEGIDFSQERQKISGLRTLEQSVGEWLESIGLQQYESKLLLNGFDDVHFLGSNVMEEQDLRDIGISDPQHRRKLLQAARSLPKVKALGYDGNSPPSVPSWLDSLGLQDYVHSFLSSGYSSIDTVKNLWELELVNVLKVQLLGHRKRIIASLADRPYEEPPQKPPRFSQLRCQDLLSQTSSPLSQNDSCTGRSADLLLPPGDTGRRRHDSLHDPAAPSRAERFRIQEEHREAKLTLRPPSLAAPYAPVQSWQHQPEKLIFESCGYEANYLGSMLIKDLRGTESTQDACAKMRKSTEHMKKIPTIILSITYKGVKFIDASNKNVIAEHEIRNISCAAQDPEDLCTFAYITKDLQTSHHYCHVFSTVDVNLTYEIILTLGQAFEVAYQLALQAQKSRATGASAAEMIETKSSKPVPKPRVGVRKSALEPPDMDQDAQSHASVSWVVDPKPDSKRSLSTN
In the case of B1, the binding entry in test [2] and in test [3] was “binds” each time.

B2: HaloTag-odin (protein, UniProt Q92625 1-1134)
chain: MGKEQELLEAARTGHLPAVEKLLSGKRLSSGFGGGGGGGSGGGGGGSGGGGGGLGSSSHPLSSLLSMWRGPNVNCVDSTGYTPLHHAALNGHKDVVEVLLRNDALTNVADSKGCYPLHLAAWKGDAQIVRLLIHQGPSHTRVNEQNNDNETALHCAAQYGHTEVVKVLLEELTDPTMRNNKFETPLDLAALYGRLEVVKMLLNAHPNLLSCNTKKHTPLHLAARNGHKAVVQVLLDAGMDSNYQTEMGSALHEAALFGKTDVVQILLAAGTDVNIKDNHGLTALDTVRELPSQKSQQIAALIEDHMTGKRSTKEVDKTPPPQPPLISSMDSISQKSQGDVEKAVTELIIDFDANAEEEGPYEALYNAISCHSLDSMASGRSSDQDSTNKEAEAAGVKPAGVRPRERPPPPAKPPPDEEEEDHIDKKYFPLTASEVLSMRPRIHGSAAREEDEHPYELLLTAETKKVVLVDGKTKDHRRSSSSRSQDSAEGQDGQVPEQFSGLLHGSSPVCEVGQDPFQLLCTAGQSHPDGSPQQGACHKASMQLEETGVHAPGASQPSALDQSKRVGYLTGLPTTNSRSHPETLTHTASPHPGGAEEGDRSGARSRAPPTSKPKAELKLSRSLSKSDSDLLTCSPTEDATMGSRSESLSNCSIGKKRLEKSPSFASEWDEIEKIMSSIGEGIDFSQERQKISGLRTLEQSVGEWLESIGLQQYESKLLLNGFDDVHFLGSNVMEEQDLRDIGISDPQHRRKLLQAARSLPKVKALGYDGNSPPSVPSWLDSLGLQDYVHSFLSSGYSSIDTVKNLWELELVNVLKVQLLGHRKRIIASLADRPYEEPPQKPPRFSQLRCQDLLSQTSSPLSQNDSCTGRSADLLLPPGDTGRRRHDSLHDPAAPSRAERFRIQEEHREAKLTLRPPSLAAPYAPVQSWQHQPEKLIFESCGYEANYLGSMLIKDLRGTESTQDACAKMRKSTEHMKKIPTIILSITYKGVKFIDASNKNVIAEHEIRNISCAAQDPEDLCTFAYITKDLQTSHHYCHVFSTVDVNLTYEIILTLGQAFEVAYQLALQAQKSRATGASAAEMIETKSSKPVPKPRVGVRKSALEPPDMDQDAQSHASVSWVVDPKPDSKRSLSTN
Regarding B2, the binding result with myc-RINL (human) was “binds”.
